Some of the results follow. Peptide text beside a SMILES is read from it. * marks the point of attachment. Hydrocinnamoyl = O=C(CCc1ccccc1)*
Test system: T1, CTL2-GFP (C. trachomatis L2/434/Bu, GFP-expressing)
T1 construct: L2/434/Bu, GFP-expressing
Design: species or system HeLa; Intracellular C. trachomatis growth in HeLa cells, bulk GFP fluorescence relative to DMSO
Conditions: bulk GFP, single well; 28.5 h, 10 µM; inhibitor

SMILES	% of control remaining [%]
CCc1nccn1CC(=O)NC(Cc1ccsc1)c1nccs1 (stereo not drawn) [CBK285139]	71.46
CCc1ccc2c(COC(=O)c3cccnc3SC)cc(=O)oc2c1 [CBK297486]	164.907
COc1ccc(C23CCCN(C)C2C[C@@H](O)CC3)cc1OC (stereo partly drawn) [CBK016226C]	139.484
CN1CCN(c2nc3c(c(=O)n(C)c(=O)n3C)n2CCSc2nc3ccccc3o2)CC1 [CBK269452]	113.234
NS(=O)(=O)c1ccc(CNC(=S)NC2CCCC2)cc1 [CBK265802]	100.409
CCNc1ncc(C(=O)N2CCOC(c3ccc(F)c(C)c3)C2)s1 (stereo not drawn) [CBK306375]	90.4376
COCCCNC(NC(=O)c1ccc(C)cc1)C(Cl)(Cl)Cl (stereo not drawn) [CBK263087]	98.1826
COc1ccc(S(=O)(=O)NCCSCc2cccc(Cl)c2)c(Cl)c1Cl [CBK266281]	159.736
c1ccc(CN2CCC(c3ccncc3)CC2)nc1 [CBK283505]	121.084
COc1cc(OC)cc(C(=O)Nc2ccc(C(=O)c3ccccc3)cc2)c1 [CBK098732]	81.161
Cc1cccc2c1ncn1c(=O)n(CC(=O)Nc3cccc(Cl)c3)nc21 [CBK287815]	128.598
CCCn1c(SCC(=O)N2CCOCC2)nc2cc(Cl)ccc2c1=O [CBK306482]	118.75
S=C(NNC(=S)Nc1ccc(Cl)c(Cl)c1)Nc1cccnc1 [CBK268483]	112.693
O=C(c1ncc(F)cc1F)N1CCCCC1CN1CCOCC1 (stereo not drawn) [CBK305482]	124.943
CCN(CC)CCN1CCN(c2cc(-c3ccc(OC(F)(F)F)cc3)ncn2)CC1 [CBK037756]	225.436
O=C(CCC(=O)c1ccc2c(c1)OCCO2)OCC(=O)c1ccc(Cl)c(Cl)c1 [CBK264825]	100
O=C(Cn1ccc(=O)[nH]c1=O)NCC1(Sc2ccccc2)CC1 [CBK306242]	123.453
O=C(O)CNC(=O)CNC(=O)CCc1ccccc1 [CBK286874] (Hydrocinnamoyl-Gly-Gly-OH)	132.323
COc1nc2ccn(CCN3C(=O)CCC3=O)c(=O)c2cc1C#N [CBK307422]	115.809
CCc1ccc(CN(C(=O)c2cc(OC)c(OC)c(OC)c2)C2CCS(=O)(=O)C2)cc1 (stereo not drawn) [CBK293961]	150.391
O=S(=O)(CC(F)(F)F)N(c1ccccc1)C1CCNCC1 [CBK165093T]	111.415
COc1ccc(C(=O)N(C)C2CCN(C)C2)cc1Nc1cncc(-c2cc3ccccc3[nH]2)n1 (stereo not drawn) [CBK155260T]	90.9545
Nc1ncc(-c2ccsc2)nc1NCC1CCOCC1 [CBK063848]	177.707
CN1C(=O)c2ccccc2C(=O)[C@@]2(C)CN(C(=O)C3CC3)C[C@@H]12 [CBK284569]	127.03
Cc1ccc(S(=O)(=O)Nc2ccnc(Cl)n2)cc1 [CBK067661]	121.713
CCNC(=O)NC[C@H]1C[C@@H]2CCN1C[C@@H]2c1cc(-c2ccccc2OC)nn1C [CBK289105]	98.6906

SMILES	% of control remaining [%]
CCCCC(NS(=O)(=O)Cc1ccccc1)C(=O)O (stereo not drawn) [CBK286798]	120.627
CCN(CC)CCCNc1oc(-c2ccc(Cl)cc2)nc1C#N [CBK265746]	140.677
c1ccc2c3c([nH]c2c1)C1(CCN(CCC2CCCCC2)C1)OCC3 (stereo not drawn) [CBK061789]	35.5479
CCN(C(=O)Cn1cccc(OC)c1=O)C1CCOC(C)(C)C1 (stereo not drawn) [CBK306879]	90.4421
O=C(O)CNC(=O)Cn1ccc2ccc(OCc3ccccc3)cc21 [CBK286644]	120.18
Nc1cc(-c2ccco2)nn(Cc2c(F)cccc2Cl)c1=O [CBK282881]	82.6889
O=C(NCc1ccc(OC(F)(F)F)cc1)c1cnoc1-c1ccc(F)cc1 [CBK154952]	126.682
CCn1c(C(CC(C)C)NC(=O)C2CC2)nc2cccnc21 (stereo not drawn) [CBK283736]	89.076
COc1cc(CNc2cccc(-c3ccsc3)n2)cc(OC)c1 [CBK037592]	108.406
O=C(c1ccco1)N1CCN(c2ncnc3scc(-c4cccs4)c23)CC1 [CBK267208]	102.3
CCn1c(SCC(=O)Nc2cccc([N+](=O)[O-])c2)nnc1-c1cc(Br)ccc1O [CBK267980]	128.031
Cc1cc(=O)[nH]c(-n2nc(C)cc2NC(=O)c2ccccc2)n1 [CBK287653]	118.482
Cc1nn(CC(=O)NCC2CC2)c(=O)c2cc3sccc3n12 [CBK284025]	130.147
COc1ccccc1CN(Cc1cccnc1)C(=O)CCC(F)(F)F [CBK307713]	141.749
FC(F)c1cc([C@@H]2CN(CC3CCOC3)C[C@H]2c2ccccc2)n[nH]1 (stereo partly drawn) [CBK285430]	105.058
O=S(=O)(c1ccc2ccccc2c1)N1CCN(C2CCC(c3ccccc3)CC2)CC1 (stereo not drawn) [CBK264152]	100
O=C(O)CCc1ccc(-c2ccc(Cl)cc2)[nH]1 [CBK264781]	99.428
O=C(Cc1ccc(F)cc1)Nc1cccc(-c2noc(-c3ccc(F)cc3)n2)c1 [CBK299821]	108.563
O=C1CCC(=O)N1CCOc1nccnc1OC1CCN(Cc2ccccc2-c2ccccc2)CC1 [CBK084344]	112.796
O=C(Nc1cnc(-c2ccc(F)c(Cl)c2)c(-c2cccnc2)n1)c1ccc(N2CCCC2=O)cc1 [CBK036794]	100.869
Cc1nc(C)c(CCC(=O)N2CCCCC2Cn2cccn2)c(=O)[nH]1 (stereo not drawn) [CBK305310]	135.28
CC1(C)CC(=O)c2sc(NC(=O)c3ccc(Oc4ccccc4)cc3)nc2C1 [CBK144106]	95.99
COc1ccc(Nc2nc(N)nc(CN3CC(C)CC(C)C3)n2)cc1 (stereo not drawn) [CBK288154]	100.905
Cc1cc(OCCCNCCO)ccc1Cl [CBK262230]	119.652
CC(=O)Nc1ccc(OCC(O)Cn2cnc3cc(C)c(C)cc32)cc1 (stereo not drawn) [CBK304545]	115.452
CCn1cc(-c2cncn2CCOc2ccc(Cl)cc2)cn1 [CBK281776]	152.203

SMILES	% of control remaining [%]
CCOC(=O)C1(C2CCCCC2)CCN(C(=O)Cc2ccc(Cl)c(Cl)c2)CC1 [CBK136922]	124.441
CCC(CN1CCOCC1)NC(=O)Cc1coc2c(C)c(C)ccc12 (stereo not drawn) [CBK282813]	130.972
COc1cc(C)c(Nc2cc(-c3ccc(CC(C)C)cc3)ncn2)cc1OC [CBK090785]	119.244
N#Cc1cc(Nc2ccc(Cc3ccncc3)cc2)c([N+](=O)[O-])cc1C#N [CBK264090]	129.859
CCCc1nnc(NC(=O)CN2CCc3c(c(CO)nn3C)C2)s1 [CBK307172]	133.934
CC1CN(Cc2nc3c(c(=O)n(C)c(=O)n3C)n2CCCO)CC(C)O1 (stereo not drawn) [CBK269298]	131.402
CN(C)C(=O)[C@H]1CC[C@]2(CC1)CNC(=O)c1ccccc1O2 [CBK284894]	141.439
CCOc1ccc(-c2n[nH]c(C)c2-c2ccc(OC)c(OC)c2)c(O)c1 [CBK288106]	116.607
c1csc(-c2nccnc2OC2CCCCC2)c1 [CBK107060]	117.88
O=C(Nc1ncn(CC(=O)N2CCCCCC2)n1)c1ccsc1 [CBK304974]	112.765
c1ccc(CCN2CCN(Cc3ncc[nH]3)CC2)cc1 [CBK138328]	78.3517
CCCc1ccc(S(=O)(=O)Nc2ccc(C(=O)O)cc2)cc1 [CBK034044]	87.5218
O=C(CCC(=O)c1ccc2c(c1)OCCO2)OCC(=O)c1ccc(F)cc1 [CBK264679]	112.988
O=C(NC[C@H]1CC[C@H](C(=O)O)CC1)c1cc2ccccc2[nH]1 [CBK287069]	102.381
COc1ccccc1-n1c(C)c(C(C)=O)c2cc(O)ccc21 [CBK115320]	106.428
CNC(=O)C1(Cc2ccccc2-c2cccs2)CCN(C(=O)COc2ccccc2)CC1 [CBK285684]	103.506
Cc1ccc(OCC(=O)N2CCN(S(=O)(=O)c3ccc4ccccc4c3)CC2)cc1 [CBK264200]	111.967
O=C(c1ccccc1F)[C@H]1CCCN(C(=O)c2cc(C3CC3)n[nH]2)C1 [CBK284330]	110.892
O=S(=O)(Nc1nnn[nH]1)c1ccccc1Br [CBK062386]	110.568
O=C1CCCC[C@]2(CN(Cc3ccccc3)C[C@H]2c2ccccn2)N1 [CBK283340]	133.667
CCn1c(=O)oc2cc(NC(=O)NCCN3CCCCC3CO)ccc21 (stereo not drawn) [CBK306565]	99.8287
CSCc1ccc(C(=O)Nc2cc(C(=O)O)ccc2C)cc1 [CBK297107]	125.888
CC12CCC(C(=O)N(CC(O)Cn3c4ccc(Br)cc4c4cc(Br)ccc43)C1=O)C2(C)C (stereo not drawn) [CBK262449]	125.333
CCc1nc2ccc(C(=O)N3CCCCC3)cn2c1N(C)C(=O)c1cccc(OC)c1 [CBK146392]	124.095
Cc1cc(C2CCCCCN2C(=O)c2cccc(F)c2)on1 (stereo not drawn) [CBK285448]	121.593
CS(=O)(=O)N1CC2(CCN(CCCCC3NC(=O)NC3=O)CC2)c2ccccc21 (stereo not drawn) [CBK126684]	111.908

A section from the list above, as a working copy:
SMILES	% of control remaining [%]
CNC(=O)C1(Cc2ccccc2-c2cccs2)CCN(C(=O)COc2ccccc2)CC1 [CBK285684]	103.506
Cc1ccc(OCC(=O)N2CCN(S(=O)(=O)c3ccc4ccccc4c3)CC2)cc1 [CBK264200]	111.967
O=C(c1ccccc1F)[C@H]1CCCN(C(=O)c2cc(C3CC3)n[nH]2)C1 [CBK284330]	110.892
O=S(=O)(Nc1nnn[nH]1)c1ccccc1Br [CBK062386]	110.568
O=C1CCCC[C@]2(CN(Cc3ccccc3)C[C@H]2c2ccccn2)N1 [CBK283340]	133.667
CCn1c(=O)oc2cc(NC(=O)NCCN3CCCCC3CO)ccc21 (stereo not drawn) [CBK306565]	99.8287

— article PMC12040169 (PLOS Biology, 2025)
